Laboratory results taken from article PMC11183137.
No constants are given. Whether binding was seen depends on the method and setting. Binding seen in cells or lysates may run through a third protein. These calls come from enrichment with a bait or labelling near it, and not all partners need be listed.

Protein sequences, listed by entry. Tags and fused reporters are not part of them.
UniProt Q9EPB4: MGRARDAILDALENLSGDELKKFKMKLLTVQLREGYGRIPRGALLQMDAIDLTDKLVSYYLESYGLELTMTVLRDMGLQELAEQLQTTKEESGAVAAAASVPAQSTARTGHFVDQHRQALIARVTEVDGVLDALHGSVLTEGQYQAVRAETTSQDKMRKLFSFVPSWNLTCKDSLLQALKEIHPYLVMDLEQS
UniProt O70145: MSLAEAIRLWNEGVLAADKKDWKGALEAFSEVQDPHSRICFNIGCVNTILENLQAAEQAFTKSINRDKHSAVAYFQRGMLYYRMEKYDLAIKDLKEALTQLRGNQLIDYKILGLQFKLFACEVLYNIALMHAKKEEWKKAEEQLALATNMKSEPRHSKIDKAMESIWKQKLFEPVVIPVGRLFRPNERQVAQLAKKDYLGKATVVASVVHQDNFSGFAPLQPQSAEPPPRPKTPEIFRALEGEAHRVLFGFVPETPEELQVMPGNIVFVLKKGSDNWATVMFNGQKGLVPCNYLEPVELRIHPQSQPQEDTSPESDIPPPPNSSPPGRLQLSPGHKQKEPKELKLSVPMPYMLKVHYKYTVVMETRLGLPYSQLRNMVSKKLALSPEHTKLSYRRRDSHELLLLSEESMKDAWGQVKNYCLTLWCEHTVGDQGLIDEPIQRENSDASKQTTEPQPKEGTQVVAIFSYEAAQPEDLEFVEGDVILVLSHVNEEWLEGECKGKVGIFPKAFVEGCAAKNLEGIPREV

B1: NCF1 (p47^phox), endogenous in mouse BMDMs (protein, UniProt Q09014 1-390)
chain: MGDTFIRHIALLGFEKRFIPSQHYVYMFLVKWQDLSEKVVYRKFTEIYEFHKMLKEMFPIEAGEIHTENRVIPHLPAPRWFDGQRAAESRQGTLTEYFNGLMGLPVKISRCPHLLDFFKVRPDDLKLPTDSQAKKPETYLVPKDGKNNVADITGPIILQTYRAIADYEKSSGTEMTVATGDVVDVVEKSESGWWFCQMKTKRGWVPASYLEPLDSPDEAEDPDPNYAGEPYVTIKAYAAVEEDEMSLSEGEAIEVIHKLLDGWWVVRKGDITGYFPSMYLQKAGEEITQAQRQIRGRGAPPRRSTIRNAQSIHQRSRKRLSQDTYRRNSVRFLQQRRRPGRPGPLSTDGTKDNPSTPRVKPQPAVPPRPSSDLILHRCTESTKRKLTSAV
B2: NCF4 (p40^phox), endogenous in mouse BMDMs (protein, UniProt P97369 1-339)
chain: MALAQQLRSESDFEQLPDDVAVSANIADIEEKRGFTSHFVFVIEVKTKGGSKYLIYRRYRQFYALQSKLEERFGPESKNSPFTCSLPTLPAKVYMGAKQEIAETRIPALNAYMKNLLSLPVCVLMDPDVRIFFYQSAYDAEQVPQALRRLRPRTRKIKGVSPQGAIMDRMEAPRAEALFDFTGNSKLELSFKAGDVIFLLSKINKDWLEGTSQGATGIFPGSFVKILKDFPEDEDTTNWLRCYFYEDTGKTIKDIAVEEDLSSTPLFKDLLALMRREFQREDIALSYQDAEGDLVRLLSDEDVGLMVKQARGLPSQKRLFPWKLHVTQKDNYSVYNTVP

These molecules were tested against apoptosis-associated speck-like protein containing a CARD (ASC), endogenous in mouse BMDMs (mouse (endogenous in BMDMs)) (UniProt Q9EPB4) (assay: affinity purification with mass spectrometry).

Row | binding | Molecule
1 | binds | NCF2 (p67^phox), endogenous in mouse BMDMs (from UniProt O70145 1-525)
2 | binds | B1
3 | binds | B2
